Assay results taken from article PMC12713273.
These are yes or no findings as the source states them, for the method shown. In cells and extracts the contact can be indirect. Some entries that bind do so weakly or less than the wild type.

Biological target: T1, N-acetyltransferase 10 (NAT10) (human (endogenous in HaCaT)) (UniProt Q9H0A0)
T1 sequence: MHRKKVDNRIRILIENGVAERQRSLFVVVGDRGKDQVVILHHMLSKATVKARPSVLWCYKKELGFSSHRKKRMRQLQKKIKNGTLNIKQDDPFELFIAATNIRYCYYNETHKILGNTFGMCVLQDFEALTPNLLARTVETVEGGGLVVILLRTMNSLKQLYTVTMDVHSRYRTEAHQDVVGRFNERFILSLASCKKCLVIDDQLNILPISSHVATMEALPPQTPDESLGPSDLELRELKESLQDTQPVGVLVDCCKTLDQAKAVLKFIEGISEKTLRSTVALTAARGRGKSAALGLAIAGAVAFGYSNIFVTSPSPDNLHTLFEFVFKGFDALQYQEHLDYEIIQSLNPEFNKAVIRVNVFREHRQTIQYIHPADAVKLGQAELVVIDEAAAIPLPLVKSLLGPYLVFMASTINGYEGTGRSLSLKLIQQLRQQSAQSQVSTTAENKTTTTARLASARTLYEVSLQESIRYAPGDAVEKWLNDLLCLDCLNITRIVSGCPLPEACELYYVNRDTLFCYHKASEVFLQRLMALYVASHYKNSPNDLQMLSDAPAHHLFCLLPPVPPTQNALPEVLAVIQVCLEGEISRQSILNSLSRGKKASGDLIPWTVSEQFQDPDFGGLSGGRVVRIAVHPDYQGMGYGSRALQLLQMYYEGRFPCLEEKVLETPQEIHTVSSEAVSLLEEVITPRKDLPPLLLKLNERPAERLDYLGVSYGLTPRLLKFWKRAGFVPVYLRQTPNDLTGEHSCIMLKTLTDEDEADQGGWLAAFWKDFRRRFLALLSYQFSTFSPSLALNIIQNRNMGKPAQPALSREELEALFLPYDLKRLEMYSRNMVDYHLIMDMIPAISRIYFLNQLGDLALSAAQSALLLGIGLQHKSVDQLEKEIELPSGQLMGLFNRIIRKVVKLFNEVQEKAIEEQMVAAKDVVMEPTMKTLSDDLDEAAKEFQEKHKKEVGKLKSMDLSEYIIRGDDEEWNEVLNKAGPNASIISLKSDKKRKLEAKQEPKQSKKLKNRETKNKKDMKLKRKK
Test: co-IP; HaCaT lysates, anti-NAT10 antibody or species-matched control IgG on magnetic beads, immunoblot for NBR1, p62 and NAT10; cells exposed to UVB and treated with 250 uM or 1000 uM NGR1

Question: With “p62 (Sequestosome 1) (from UniProt Q13501 1-440)” as the substance, how does the binding read?
Answer: The binding was “binds”.
